The list shows a part of the results. Rule as the data show it: active = 2 or more and inactive = the rest. Single values are uncertain here, since repeats match poorly.
Tested on: Lgr5 (MarsCy1-Lgr5-EGFP, U2OS)
Test: cell-surface Lgr5 expression (SCi1 fluorescence, background-subtracted) relative to WT DMSO (fold of DMSO control); higher = more Lgr5 at the plasma membrane
Details: U2OS MarsCy1-Lgr5-EGFP stable; treatment time: overnight; library: ActiProbe-5K (TimTec); 25 µM

Structure (SMILES)	cell-surface Lgr5 expression
O=c1oc2ccccc2c(O)c1C1c2ccccc2Oc2c1c(=O)oc1ccccc21 (stereo not drawn)	inactive: 1.14
O=c1[nH]c2nonc2[nH]c1=O	inactive: 1.16
C(#CCN1CCCC1)CN1CCCC1	inactive: 1.45
Cc1[nH]nc2c1C1(CN3CCC1CC3)C(C#N)=C(N)O2 (stereo not drawn)	inactive: 1.25
S=C=NCC1CCCO1 (stereo not drawn)	inactive: 1.34
Cc1cccc(NC2=NCC(C)S2)n1 (stereo not drawn)	inactive: 1.29
c1ccc2sc(N3CCNCC3)nc2c1	inactive: 1.17
O=C1c2ccccc2-c2cccc3cccc1c23	inactive: 1.24
O=[N+]([O-])c1cc[n+]([O-])c2ccccc12	inactive: 1.66
CC(C)C/C(=N/O)c1cn(C)c2ccccc12	inactive: 1.18
CCCc1[nH]nc2c1C1(CN3CCC1CC3)C(C#N)=C(N)O2 (stereo not drawn)	inactive: 1.11
Cc1cc(C)[n+]2cc(Br)ccc2n1.[O-][Cl+3]([O-])([O-])[O-]	inactive: 1.17
O=S1(=O)CC2SC2C1 (stereo not drawn)	inactive: 1.2
C=C(C)CC1NC2CC(C)(C)C1c1ccccc12 (stereo not drawn)	inactive: 1.62
OC(c1ccc(Cl)s1)(c1ccc(Cl)s1)C1CN2CCC1CC2 (stereo not drawn)	inactive: 1.23
c1ccc(/N=N/Nc2ccccc2)cc1	inactive: 1.09
CN1C2C=C3[C@H](C1CC2)[C@@H](c1ccc(Cl)cc1)C(C#N)=C(N)C3(C#N)C#N (stereo partly drawn)	inactive: 1.17
Cl.NC1(c2ccc(F)cc2)CC1	inactive: 1.31
CC(=O)Cn1nnc([N+](=O)[O-])n1	inactive: 0.883
Cc1cc(C)c(/C(N)=N\O)c(Cl)n1	inactive: 1.35
Cl.ClCc1ccncc1	inactive: 1.62

Structure (SMILES)	cell-surface Lgr5 expression
c1(/C=C(\C#N)C#N)c2c(cccc2)cc2c1cccc2	inactive: 1.36
Nc1nc(N)c2nn[nH]c2n1	inactive: 1.11
O=[N+]([O-])c1cnn(-c2nnn[nH]2)c1	inactive: 0.919
C/C(=N\O)c1cn(C)c2ccccc12	inactive: 1.16
c1(n(ccc1)C)/C=C(\C#N)C#N	inactive: 1.01
NCC1CCCN2CCCCC12 (stereo not drawn)	inactive: 1.19
N/C(=N/O)c1nonc1N	inactive: 1.3
O=C1NC(=O)C(=O)C(O)(O)N1	inactive: 0.577
CCCCC/C(=N/O)c1c(C)[nH]c2ccccc12	inactive: 1.02
N=c1nc(-c2ccccc2)n(-c2ccccc2)s1.[O-][Cl+3]([O-])([O-])O	inactive: 0.825
CN(C)CCNc1ccc([N+](=O)[O-])c2cccnc12.Cl	inactive: 1.96
N/C(=N/N=C/c1ccc([N+](=O)[O-])o1)c1nonc1N	inactive: 0.605
O=C(c1nccs1)C1CCCN1 (stereo not drawn)	inactive: 0.654
Fc1ccc(COCC23COCN2COC3)cc1	inactive: 1.08
COC(C)C(O)(C(=O)OCC1=CCN2CC[C@H](O)C12)C(C)C (stereo partly drawn)	inactive: 1.4
C=C[C@]1(O)CCC2C3CC4OC45CC(OC(C)=O)CCC5(C)C3CCC21C (stereo partly drawn)	inactive: 1.65
N#CCC1CCCN2CCCCC12 (stereo not drawn)	inactive: 1.03
COc1cc2c(cc1OC)-c1c(OC)c(OC)c([N+](=O)[O-])c3c1C(C2)N(C)CC3 (stereo not drawn)	inactive: 1.06
O=S(c1ccc(Cl)cc1)c1ccc(Cl)cc1	inactive: 0.788
COCCN1CCC(O)C2CCCCC21 (stereo not drawn)	inactive: 0.985
CCCCc1nc2c(o1)NC(N)=C(C#N)C21CN2CCC1CC2 (stereo not drawn)	inactive: 1.19

Structure (SMILES)	cell-surface Lgr5 expression
N#Cc1nonc1-c1nnn[nH]1	inactive: 0.859
CC1CC(=O)C2CCCCC2N1 (stereo not drawn)	inactive: 1.14
COc1cc(C2c3cc4c(cc3OC3(N5CCCC5)CCCC23)OCO4)cc(OC)c1OC (stereo not drawn)	inactive: 1.3
c1ccc2c(c1)Nc1ccccc1S2	inactive: 1.11
CCC(C)C12CN3CCN(CC(C)(C3)C1=O)C2 (stereo not drawn)	inactive: 1.22
O=C(OCC1CCCN2CCCCC12)c1cc2ncc(Br)cn2n1 (stereo not drawn)	inactive: 1.11
Cc1c(C(N)=O)nnn1-c1nonc1N	inactive: 0.832
c1(oc(/C=C(\C#N)C#N)cc1)N1CCOCC1	inactive: 1.06
Fc1ccc2c(c1)[C@@H]1C=CC[C@@H]1[C@H](c1cccnc1)N2	inactive: 0.874
Oc1cc(Cl)c(Cl)cc1O	inactive: 0.928
CC(=O)OCC1=C(C(=O)O)N2C(=O)C(N)C2SC1 (stereo not drawn)	inactive: 0.845
Cn1c(=O)c2c(c3ccccc31)NC(=S)NN=C2	inactive: 0.827
C[n+]1noc(/N=C(\[O-])C(F)(F)F)c1-c1ccccc1	inactive: 1.05
CN1CC2c3ccccc3OC(c3ccc(Cl)cc3)C2([N+](=O)[O-])O1 (stereo not drawn)	inactive: 0.616
O=[N+]([O-])c1cc(F)c(N2CCCCCC2)cc1N1CCNCC1	inactive: 0.799
Cc1nn(C)c(C)c1CN1CCNCC1	inactive: 1.41
Clc1ccc2c(N3CCNCC3)ccnc2c1	inactive: 0.95
COC(=O)Cn1nnc(S(C)(=O)=O)n1	inactive: 1.08
[Br-].[Br-].c1cc[n+]2c(c1)-c1cccc[n+]1CC2	inactive: 0.662
Cn1nnnc1SCSc1nnnn1C	inactive: 1.51
c1(c(oc(c1)C)SCC)/C=C(\C#N)C#N	inactive: 1.24

Structure (SMILES)	cell-surface Lgr5 expression
O=c1[nH]c(=S)[nH]c(O)c1Cc1c(O)[nH]c(=S)[nH]c1=O	inactive: 1.17
c1cnc2nc(N3CCNCC3)oc2c1	inactive: 0.996
Fc1ccc(C2CCNC2)cc1 (stereo not drawn)	inactive: 0.993
CC(C)(C)NC(=O)[C@@H]1C[C@@H]2CCCC[C@@H]2CN1	inactive: 1.08
O=c1oc2ccccc2c(O)c1C1c2cc(Cl)ccc2Oc2c1c(=O)oc1ccccc21 (stereo not drawn)	inactive: 1.51
CCCNC(=O)OCC12COCN1COC2	inactive: 0.996
Fc1cccc(C2NCc3ccccc3-n3cccc32)c1 (stereo not drawn)	inactive: 1.26
C/C(Cn1nnc([N+](=O)[O-])n1)=N\NC(=O)c1c(C)nnn1-c1nonc1N	inactive: 0.906
C/C(=N\O)c1c(C)[nH]c2ccccc12	inactive: 0.813
O=C(O)Cn1cnc([N+](=O)[O-])n1	inactive: 1.36
COC(=O)c1n[nH]nc1[N+](=O)[O-]	inactive: 1.03
CN(C)c1ccc([N+](=O)[O-])c2cccnc12	inactive: 0.951
COCC(=O)OCC1CCCN2CCCCC12 (stereo not drawn)	inactive: 1.84
c1(sc(CCCC)cc1)/C=C(\C#N)C#N	inactive: 1.1
Nc1ccc(S(=O)(=O)O)cc1.Nc1ncn[nH]1	inactive: 0.867
Nc1ccc2c(c1)Cc1ccccc1-2	inactive: 1.05
CN1CCN(c2cc3nc(N)c(C#N)nc3cc2F)CC1	inactive: 1.24
Cc1coc2c1CCC(C)C2 (stereo not drawn)	inactive: 1.28
OC12CC(C3COC1O3)n1c(nc3ccccc31)N2 (stereo not drawn)	inactive: 1.29
c1([N+]([O-])=O)cn(\C(=C/N(C)C)/C=[N+](/C)C)nc1.[O-]Cl(=O)(=O)=O	inactive: 1.45

Nothing new here: entries from further up.
Structure (SMILES)	cell-surface Lgr5 expression
COc1cc(C2c3cc4c(cc3OC3(N5CCCC5)CCCC23)OCO4)cc(OC)c1OC (stereo not drawn)	inactive: 1.3
c1ccc2c(c1)Nc1ccccc1S2	inactive: 1.11
CCC(C)C12CN3CCN(CC(C)(C3)C1=O)C2 (stereo not drawn)	inactive: 1.22

Source: the supplement of paper PMC4683952
